From PubChem BioAssay AID206 (DTP/NCI, 2004)
The list shows only some results of the screen, not a fair sample: it is rich in T/C values a quarter to a half above the control, in often repeated tests (any T/C) and in doses without a T/C. Further doses and runs are listed elsewhere. T/C: endpoint of the treated group in % of that of the vehicle group. Schedules are NCI's codes, taken here to give the interval after Q, in days (D) or hours (H), and the number of doses after X. Some entries were tested several times; their values stand side by side, smallest first. Some T/C values carry the count of animals alive at the toxicity check (mostly the fifth day); where none is given, no animal had died by that day. Some doses have a count of surviving animals in place of a T/C: the source files T/C as zero there, which appears to mark a toxic dose or a test without result, not a measured value. Counts of survivors are from the toxicity check (mostly the fifth day) where no day follows; animals may have died later.

System: nude mice, HT29 intrarenal xenograft, tumor weight T/C
Assay: NCI In Vivo Anticancer Drug Screen. Data for tumor model HT29;CX-1 Human Adenocarcinoma (MER+) (intrarenal inoculation) in NU/NU Swiss (nude) mice
Details: T/C endpoint: mean tumor weight change, higher T/C = larger tumour
Summary of the method: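 Readout: treated/vehicle-control ratio of the measured endpoint (tumor size or survival) in transplanted-tumor mice.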

[1] = dose: 150.0 mg/kg/injection, schedule: Q04DX004 (sc), vehicle: Klucel (hydroxypropylcellulose) (HPC)
[2] = dose: 300.0 mg/kg/injection, schedule: Q04DX004 (sc), vehicle: Klucel (hydroxypropylcellulose) (HPC)
[3] = dose: 600.0 mg/kg/injection, schedule: Q04DX004 (sc), vehicle: Klucel (hydroxypropylcellulose) (HPC)
[4] = dose: 75.0 mg/kg/injection, schedule: Q04DX004 (sc), vehicle: Klucel (hydroxypropylcellulose) (HPC), evaluated on day 15
[5] = dose: 1200.0 mg/kg/injection, schedule: Q04DX004 (sc), vehicle: saline with Tween-80
[6] = dose: 200.0 mg/kg/injection, schedule: Q01DX010 (sc), vehicle: saline with Tween-80
[7] = dose: 400.0 mg/kg/injection, schedule: Q01DX010 (sc), vehicle: saline with Tween-80

For `O=NN(CCF)C(=O)NC1CCCCC1`, the survivor count (dose: 50.0 mg/kg/injection, schedule: Q04DX004 (sc), vehicle: Klucel (hydroxypropylcellulose) (HPC)) was 0 of 6 on day 15, the survivor count (dose: 75.0 mg/kg/injection, schedule: Q04DX004 (sc), vehicle: Klucel (hydroxypropylcellulose) (HPC)) was 0 of 6 on day 15 and the survivor count [1] was 0 of 6 on day 15. The survivor count [2] was 0 of 6 on day 15 and the survivor count [3] was 0 of 6 on day 15.
For `CN1CCN(CCCN2c3ccccc3Sc3ccc(C(F)(F)F)cc32)CC1`, the T/C (dose: 50.0 mg/kg/injection, schedule: Q01DX010 (sc), vehicle: saline, evaluated on day 11) was 55, 67, 105 % of control, the T/C (dose: 100.0 mg/kg/injection, schedule: Q01DX010 (sc), vehicle: saline, evaluated on day 11) was 74, 75, 87 % of control and the survivor count (dose: 100.0 mg/kg/injection, schedule: Q01DX010 (sc), vehicle: saline) was 1 of 3 on day 11. For the same molecule, the T/C (dose: 200.0 mg/kg/injection, schedule: Q01DX010 (sc), vehicle: saline, evaluated on day 11) was 17 [2 of 2 alive on day 11], 21, 35 % of control, the survivor count (dose: 200.0 mg/kg/injection, schedule: Q01DX010 (sc), vehicle: saline) was 3 of 5 on day 11 and the survivor count (dose: 400.0 mg/kg/injection, schedule: Q01DX010 (sc), vehicle: saline) was 0 of 3 on day 11, 0 of 6 on day 11, 1 of 6 on day 11.
`COC1/C=C/O[C@@]2(C)Oc3c(C)c(O)c4c(O)c(cc(O)c4c3C2=O)NC(=O)/C(C)=C\C=C\[C@H](C)C(O)[C@@H](C)[C@@H](O)[C@@H](C)[C@H](OC(C)=O)[C@@H]1C` (stereo partly specified) was tested, and the T/C (dose: 600.0 mg/kg/injection, schedule: Q04DX004 (sc), vehicle: suspension in saline, evaluated on day 15) was 140 % of control and the T/C (dose: 1200.0 mg/kg/injection, schedule: Q04DX004 (sc), vehicle: suspension in saline, evaluated on day 15) was 135 % of control.
With `CC(=O)[C@]1(O)Cc2c(O)c3c(c(O)c2[C@@H](OC2CC(N)C(O)C(C)O2)C1)C(=O)c1c(O)cccc1C3=O` (stereo partly specified) the survivor count (dose: 2.5 mg/kg/injection, schedule: Q04DX004 (sc), vehicle: saline) was 1 of 3 on day 20 and the survivor count (dose: 5.0 mg/kg/injection, schedule: Q04DX004 (sc), vehicle: saline) was 0 of 3 on day 20.
With `CS(=O)(=O)OCCCCOS(C)(=O)=O` the T/C (dose: 12.5 mg/kg/injection, schedule: Q01DX010 (sc), vehicle: saline with Tween-80, evaluated on day 20) was 129 % of control [2 of 2 alive on day 20] and the survivor count (dose: 50.0 mg/kg/injection, schedule: Q01DX010 (sc), vehicle: saline with Tween-80) was 0 of 3 on day 20.
`C1CC[N-]CC1.C1CC[N-]CC1.C1CC[N-]CC1.[Cl][Rh]([Cl])[Cl]` was tested, and the survivor count (dose: 600.0 mg/kg/injection, schedule: Q04DX004 (sc), vehicle: saline) was 0 of 6 on day 15 and the survivor count (dose: 1200.0 mg/kg/injection, schedule: Q04DX004 (sc), vehicle: saline) was 0 of 6 on day 15.
For `CC1=CC2c3cccc4[nH]cc(c34)CC2N(C)C1` (stereo unspecified), the survivor count (dose: 100.0 mg/kg/injection, schedule: Q04DX004 (sc), vehicle: suspension in saline) was 2 of 6 on day 15.
In the case of `C=CS(C=C)=NS(=O)(=O)c1ccc(C)cc1`, the T/C [4] is reported as 138 % of control [4 of 6 alive on day 15] and the survivor count [1] is reported as 0 of 6 on day 15.
In the case of `CCCCCCCC(=O)N/N=C(\CO)[C@]1(O)Cc2c(O)c3c(c(O)c2[C@@H](OC2CC(N)C(O)C(C)O2)C1)C(=O)c1c(OC)cccc1C3=O` (stereo partly specified), the survivor count (dose: 125.0 mg/kg/injection, schedule: Q04DX004 (sc), vehicle: water) is reported as 1 of 3 on day 15.
In the case of `COc1cccc2c1C(=O)c1c(O)c3c(c(O)c1C2=O)C[C@@](O)(C(C)=O)C[C@@H]3OC1CC(N(Cc2ccccc2)Cc2ccccc2)C(O)C(C)O1` (stereo partly specified), the survivor count (dose: 50.0 mg/kg/injection, schedule: Q01DX010 (sc), vehicle: water) is reported as 1 of 3 on day 20, the survivor count (dose: 100.0 mg/kg/injection, schedule: Q01DX010 (sc), vehicle: water) is reported as 0 of 3 on day 20 and the survivor count (dose: 200.0 mg/kg/injection, schedule: Q01DX010 (sc), vehicle: water) is reported as 0 of 3 on day 20. The survivor count (dose: 250.0 mg/kg/injection, schedule: Q04DX004 (sc), vehicle: water) was 1 of 3 on day 15.
`CN(C)C1C(=O)C(C(=O)NP(=O)(NCCCO)N(CCCl)CCCl)=C(O)C2(O)C(=O)C3=C(O)c4c(O)cccc4C(C)(O)C3CC12` (stereo unspecified) was tested, and the survivor count (dose: 300.0 mg/kg/injection, schedule: Q04DX004 (sc), vehicle: saline with Tween-80) was 2 of 6 on day 15, the survivor count (dose: 600.0 mg/kg/injection, schedule: Q04DX004 (sc), vehicle: saline with Tween-80) was 0 of 6 on day 15 and 2 of 6 on day 15 and the survivor count [5] was 0 of 6 on day 15.
In the case of `C=C1N(C)c2ccccc2C1(C)C`, the survivor count (dose: 400.0 mg/kg/injection, schedule: Q04DX004 (sc), vehicle: saline with Tween-80) is reported as 0 of 6 on day 11.
`[N-]=[N+]=CC(=O)CCC(=O)C=[N+]=[N-]` was tested, and the T/C (dose: 4.5 mg/kg/injection, schedule: Q04DX004 (sc), vehicle: DMSO, evaluated on day 15) was 129 % of control.
In the case of `Cc1noc(N)c1N`, the T/C (dose: 200.0 mg/kg/injection, schedule: Q04DX004 (sc), vehicle: water, evaluated on day 15) is reported as 146 % of control.
`O=NN(CCCl)C(=O)NC1[C@H](O)CCC[C@@H]1O` (stereo partly specified) was tested, and the survivor count (dose: 20.0 mg/kg/injection, schedule: Q04DX004 (sc), vehicle: saline) was 2 of 6 on day 15, the survivor count (dose: 40.0 mg/kg/injection, schedule: Q04DX004 (sc), vehicle: saline) was 0 of 6 on day 15 and the survivor count (dose: 80.0 mg/kg/injection, schedule: Q04DX004 (sc), vehicle: saline) was 0 of 6 on day 15.
In the case of `NC(=S)N/N=C/c1ccc(OC(=O)COc2ccc(Cl)cc2)cn1`, the T/C (dose: 150.0 mg/kg/injection, schedule: Q04DX004 (sc), vehicle: saline with Tween-80, evaluated on day 15) is reported as 136 % of control and the survivor count [5] is reported as 3 of 6 on day 15.
With `O=C1C=C2C(=CCOC2O)O1` (stereo unspecified) the survivor count (dose: 8.0 mg/kg/injection, schedule: Q04DX004 (sc), vehicle: Klucel (hydroxypropylcellulose) (HPC)) was 1 of 6 on day 15 and the survivor count (dose: 16.0 mg/kg/injection, schedule: Q04DX004 (sc), vehicle: Klucel (hydroxypropylcellulose) (HPC)) was 0 of 6 on day 15.
For `CC(C)CC(=O)NC(C(=O)NC(C(=O)NC(CC(C)C)C(O)CC(=O)NC(C)C(=O)NC(CC(C)C)C(O)CC(=O)O)C(C)C)C(C)C` (stereo unspecified), the T/C [4] was 128 % of control.
`CCN(C)N=Nc1ccc(C(N)=O)cc1` was tested, and the survivor count [2] was 1 of 6 on day 15 and the survivor count [3] was 0 of 6 on day 15.
In the case of `O=c1nc(Oc2ccccc2)nc2ncccn12`, the survivor count [6] is reported as 3 of 6 on day 20 and the survivor count [7] is reported as 1 of 6 on day 20.
For `C1CN2CCC1CC2`, the survivor count (dose: 37.5 mg/kg/injection, schedule: Q04DX004 (sc), vehicle: saline with Tween-80) was 0 of 6 on day 15 and the survivor count (dose: 75.0 mg/kg/injection, schedule: Q04DX004 (sc), vehicle: saline with Tween-80) was 0 of 6 on day 15.
With `S=C=NCCc1ccccc1` the survivor count [6] was 0 of 6 on day 15 and the survivor count [7] was 0 of 6 on day 15 and 2 of 6 on day 15.
In the case of `OCC1OC(n2cnc3cncnc32)C(O)C1O` (stereo unspecified), the survivor count (dose: 100.0 mg/kg/injection, schedule: Q04DX004 (sc), vehicle: saline) is reported as 0 of 6 on day 15.
`CCOC(OCC)C(=O)OCC(=O)[C@]1(O)Cc2c(O)c3c(c(O)c2[C@@H](OC2CC(N)C(O)C(C)O2)C1)C(=O)c1c(OC)cccc1C3=O` (stereo partly specified) was tested, and the survivor count (dose: 10.0 mg/kg/injection, schedule: Q04DX004 (sc), vehicle: water) was 2 of 5 on day 15 and the survivor count (dose: 20.0 mg/kg/injection, schedule: Q04DX004 (sc), vehicle: water) was 0 of 5 on day 15 and 3 of 6 on day 15.
`O=[N+]([O-])c1ccc(Sc2ccncn2)c([N+](=O)[O-])c1` was tested, and the T/C (dose: 75.0 mg/kg/injection, schedule: Q04DX004 (sc), vehicle: saline with Tween-80, evaluated on day 15) was 128 % of control.
In the case of `CCCCC(=O)OCC(=O)[C@]1(O)Cc2c(O)c3c(c(O)c2[C@@H](OC2CC(NC(=O)C(F)(F)F)C(O)C(C)O2)C1)C(=O)c1c(OC)cccc1C3=O` (stereo partly specified), the survivor count (dose: 512.0 mg/kg/injection, schedule: Q01DX010 (sc), vehicle: distilled water + Tween-80) is reported as 1 of 3 on day 11.
In the case of `CCOC(=O)CNC(=O)CCCCSc1ncnc2nc[nH]c12`, the T/C (dose: 900.0 mg/kg/injection, schedule: Q04DX004 (sc), vehicle: saline with Tween-80, evaluated on day 15) is reported as 147 % of control and the survivor count (dose: 1800.0 mg/kg/injection, schedule: Q04DX004 (sc), vehicle: saline with Tween-80) is reported as 1 of 3 on day 15.
